Test results reported in article PMC5234816.
Numbering of substitutions follows the chain as printed. These are yes or no findings as the source states them, for the method shown. Binding seen in cells or lysates may run through a third protein. Some binding calls cover weakened binding; strength is not graded here. Where a sequence is shown, tags or fusion partners need not be part of it.

Assays:
Experiment in all cases: co-IP; HEK-293 cells transfected with SLITRK5 alleles; interaction with purified PTPδ-Fc examined by co-precipitation and immunoblot; only the binder purified
[1] = molecular target: T1, HA-tagged SLITRK5 N99K (rare non-synonymous mutation from an OCD subject) (human) (UniProt O94991)
T1 sequence: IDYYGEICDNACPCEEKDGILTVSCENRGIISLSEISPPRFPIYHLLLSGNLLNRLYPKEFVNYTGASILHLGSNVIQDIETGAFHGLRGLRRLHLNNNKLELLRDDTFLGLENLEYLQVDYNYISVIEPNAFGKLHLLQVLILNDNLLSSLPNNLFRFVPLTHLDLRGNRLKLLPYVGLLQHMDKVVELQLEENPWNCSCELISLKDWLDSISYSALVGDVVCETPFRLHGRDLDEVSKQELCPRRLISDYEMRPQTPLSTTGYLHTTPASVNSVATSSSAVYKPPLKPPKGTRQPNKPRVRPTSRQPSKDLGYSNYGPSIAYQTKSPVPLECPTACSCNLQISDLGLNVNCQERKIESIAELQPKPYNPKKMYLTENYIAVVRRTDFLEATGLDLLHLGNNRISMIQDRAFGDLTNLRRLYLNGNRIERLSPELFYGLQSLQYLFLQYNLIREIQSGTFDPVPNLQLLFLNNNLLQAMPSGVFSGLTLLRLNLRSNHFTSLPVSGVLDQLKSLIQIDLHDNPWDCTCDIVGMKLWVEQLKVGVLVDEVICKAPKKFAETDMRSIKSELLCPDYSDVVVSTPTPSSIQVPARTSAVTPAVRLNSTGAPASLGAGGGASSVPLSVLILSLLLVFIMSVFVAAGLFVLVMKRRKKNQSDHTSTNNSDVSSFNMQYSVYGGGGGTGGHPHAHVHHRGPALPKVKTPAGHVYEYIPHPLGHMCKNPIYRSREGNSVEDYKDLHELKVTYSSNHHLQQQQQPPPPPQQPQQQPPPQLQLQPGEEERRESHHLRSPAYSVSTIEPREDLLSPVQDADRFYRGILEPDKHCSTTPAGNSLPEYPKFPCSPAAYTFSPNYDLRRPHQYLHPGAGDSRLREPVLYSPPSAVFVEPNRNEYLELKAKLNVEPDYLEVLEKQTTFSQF

[2] = molecular target: T2, HA-tagged SLITRK5 P891L (pseudo-matched control mutation from the 1000 Genomes database) (human) (UniProt O94991)
T2 sequence: T1 sequence with K59N, P851L

[3] = molecular target: T3, HA-tagged SLITRK5 E600K (rare non-synonymous mutation from an OCD subject) (human) (UniProt O94991)
T3 sequence: T1 sequence with K59N, E560K

Measured: binding

B1: soluble PTPδ ectodomain fused to a human immunoglobulin Fc fragment (PTPδ-Fc) (Fc fusion, UniProt P23468 21-1265)
chain: ETPPRFTRTPVDQTGVSGGVASFICQATGDPRPKIVWNKKGKKVSNQRFEVIEFDDGSGSVLRIQPLRTPRDEAIYECVASNNVGEISVSTRLTVLREDQIPRGFPTIDMGPQLKVVERTRTATMLCAASGNPDPEITWFKDFLPVDTSNNNGRIKQLRSESIGGTPIRGALQIEQSEESDQGKYECVATNSAGTRYSAPANLYVRELREVRRVPPRFSIPPTNHEIMPGGSVNITCVAVGSPMPYVKWMLGAEDLTPEDDMPIGRNVLELNDVRQSANYTCVAMSTLGVIEAIAQITVKALPKPPGTPVVTESTATSITLTWDSGNPEPVSYYIIQHKPKNSEELYKEIDGVATTRYSVAGLSPYSDYEFRVVAVNNIGRGPPSEPVLTQTSEQAPSSAPRDVQARMLSSTTILVQWKEPEEPNGQIQGYRVYYTMDPTQHVNNWMKHNVADSQITTIGNLVPQKTYSVKVLAFTSIGDGPLSSDIQVITQTGVPGQPLNFKAEPESETSILLSWTPPRSDTIANYELVYKDGEHGEEQRITIEPGTSYRLQGLKPNSLYYFRLAARSPQGLGASTAEISARTMQSKPSAPPQDISCTSPSSTSILVSWQPPPVEKQNGIITEYSIKYTAVDGEDDKPHEILGIPSDTTKYLLEQLEKWTEYRITVTAHTDVGPGPESLSVLIRTNEDVPSGPPRKVEVEAVNSTSVKVSWRSPVPNKQHGQIRGYQVHYVRMENGEPKGQPMLKDVMLADAQWEFDDTTEHDMIISGLQPETSYSLTVTAYTTKGDGARSKPKLVSTTGAVPGKPRLVINHTQMNTALIQWHPPVDTFGPLQGYRLKFGRKDMEPLTTLEFSEKEDHFTATDIHKGASYVFRLSARNKVGFGEEMVKEISIPEEVPTGFPQNLHSEGTTSTSVQLSWQPPVLAERNGIITKYTLLYRDINIPLLPMEQLIVPADTTMTLTGLKPDTTYDVKVRAHTSKGPGPYSPSVQFRTLPVDQVFAKNFHVKAVMKTSVLLSWEIPENYNSAMPFKILYDDGKMVEEVDGRATQKLIVNLKPEKSYSFVLTNRGNSAGGLQHRVTAKTAPDVLRTKPAFIGKTNLDGMITVQLPEVPANENIKGYYIIIVPLKKSRGKFIKPWESPDEMELDELLKEISRKRRSIRYGREVELKPYIAAHFDVLPTEFTLGDDKHYGGFTNKQLQSGQEYVFFVLAVMEHAESKMYATSPYSDPVVSMDLDPQPITDEEE
binds: all assays above
